Data as given in PubChem BioAssay AID504744 (Drosophila RNAi Screening Center, 2011)

Assay: 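Identify dsRNAs that increase or decrease phospho-dAkt after insulin treatment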 (primary screen)
Cells: Drosophila Kc167 cells
Knock-down reagent: long dsRNA against Drosophila genes, 250 ng dsRNA per well of a 384-well plate
Duration: 3 days of knock-down, then overnight serum-free starvation before stimulation
Treatment: bovine insulin at 387 nM for 10 minutes after 12 h without serum
Detection: 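Per-well phospho-dAkt level from an in-cell fluorescent antibody stain, divided by a DNA-dye signal; log2 residuals turned into z-scores that take cell number into account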
Call rule: 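Under insulin, a gene counts as a hit if the average z-score of two replicates lies above 2.5 or below -2.5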
The deposit covers about 23,000 reagents; this is a random part of those with a known target gene and a result. In the full data, 98 (0.43%) are marked active. 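Only hit calls are given; the phospho-dAkt signals, z-scores and hit direction were not deposited.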 Names joined by + are all predicted targets of the reagent. No sequences are given here.

| Gene | dsRNA | outcome |
| --- | --- | --- |
| rst (roughest) | DRSC17243 | inactive |
| rst (roughest) | DRSC18828 | inactive |
| mRpL27 (mitochondrial ribosomal protein L27) | DRSC22568 | inactive |
| Rab5 | DRSC00777 | inactive |
| CG17167 | DRSC20902 | inactive |
| CG17167 | DRSC20903 | inactive |
| PGRP-SA (Peptidoglycan recognition protein SA) | DRSC19420 | inactive |
| Tmem214 (Transmembrane protein 214) | DRSC02924 | inactive |
| Tmem214 (Transmembrane protein 214) | DRSC02925 | inactive |
| CG5819 | DRSC04520 | inactive |
| CG3632 | DRSC19137 | inactive |
| CG3632 | DRSC19871 | inactive |
| fest (wurstfest) | DRSC07349 | inactive |
| l(3)73Ah (lethal (3) 73Ah) | DRSC11359 | inactive |
| sing (singles bar) | DRSC19530 | inactive |
| ph-d (polyhomeotic distal) | DRSC18819 | inactive |
| Rbf2 (Retinoblastoma-family protein 2) | DRSC16816 | inactive |
| CG13842 | DRSC14692 | inactive |
| mael (maelstrom) | DRSC11894 | inactive |
| CG31404 | DRSC15497 | inactive |
| dpr2 (defective proboscis extension response 2) | DRSC02370 | inactive |
| dpr2 (defective proboscis extension response 2) | DRSC02371 | inactive |
| Cyp305a1 (Cytochrome P450 305a1) | DRSC11126 | inactive |
| CG5103 | DRSC10481 | inactive |
| CG2871 | DRSC18230 | inactive |
| CG2871 | DRSC21719 | inactive |
| CG15914 | DRSC19739 | inactive |
| CG31810 | DRSC01560 | inactive |
| Letm1 | DRSC04476 | inactive |
| Odj (Oddjob) | DRSC16234 | inactive |
| CG17343 | DRSC02606 | inactive |
| CG17343 | DRSC22807 | inactive |
| roq (roquin) | DRSC10227 | inactive |
| CG32365 | DRSC10040 | inactive |
| CG32365 | DRSC10041 | inactive |
| CG32365 | DRSC10977 | inactive |
| Ttd14 (TRPL translocation defect 14) | DRSC06632 | inactive |
| Ttd14 (TRPL translocation defect 14) | DRSC06942 | inactive |
| TBC1d7 (TBC1 domain family member 7) | DRSC15985 | inactive |
| CG2750 | DRSC19867 | inactive |
| flfl (falafel) | DRSC16474 | inactive |
| CG5114 | DRSC10482 | inactive |
| CG13204 | DRSC06328 | inactive |
| toe (twin of eyg) | DRSC09174 | inactive |
| toe (twin of eyg) | DRSC09783 | inactive |
| Art7 (Arginine methyltransferase 7) | DRSC04588 | inactive |
| Paf-AHalpha (Platelet-activating factor acetylhydrolase alpha) | DRSC20267 | inactive |
| CG12691 | DRSC17880 | inactive |
| Uba5 (Ubiquitin-like activating enzyme 5) | DRSC19775 | inactive |
| CG11670 | DRSC14342 | inactive |
| CG15382 | DRSC00397 | inactive |
| side-II (sidestep II) | DRSC01427 | inactive |
| side-II (sidestep II) | DRSC01429 | inactive |
| side-II (sidestep II) | DRSC01913 | inactive |
| side-II (sidestep II) | DRSC01932 | inactive |
| side-II (sidestep II) | DRSC02480 | inactive |
| side-II (sidestep II) | DRSC22508 | inactive |
| CG42375 + CG9288 | DRSC16468 | inactive |
| Pka-C3 (Protein kinase, cAMP-dependent, catalytic subunit 3) | DRSC09402 | inactive |
| Pka-C3 (Protein kinase, cAMP-dependent, catalytic subunit 3) | DRSC11254 | inactive |
| CG31019 | DRSC13994 | inactive |
| CG6231 | DRSC15997 | inactive |
| Pldn (Pallidin) | DRSC10137 | inactive |
| CG8630 | DRSC16441 | inactive |
| CG9588 | DRSC16504 | inactive |
| CG11584 | DRSC19408 | inactive |
| mRpL15 (mitochondrial ribosomal protein L15) | DRSC11771 | inactive |
| CG32213 + CG12519 + 825-Oak + 1 more | DRSC09615 | inactive |
| fd96Ca (forkhead domain 96Ca) | DRSC16946 | inactive |
| fdl (fused lobes) | DRSC07279 | inactive |
| CG1572 | DRSC19686 | inactive |
| elfless | DRSC02451 | inactive |
| Fur2 (Furin 2) | DRSC19817 | inactive |
| CG7945 + yellow-k | DRSC10851 | inactive |
| CG13692 | DRSC00361 | inactive |
| Sec13 (Secretory 13) | DRSC14144 | active |
| Vrp1 (Verprolin 1) | DRSC04148 | inactive |
| alphaSnap (alpha Soluble NSF attachment protein) | DRSC11285 | inactive |
| MESR3 (Misexpression suppressor of ras 3) | DRSC02463 | inactive |
| CG3793 | DRSC01982 | inactive |
| CG34276 | DRSC15811 | inactive |
| HPS1 (Hermansky-Pudlak Syndrome 1) | DRSC06195 | inactive |
| Ntf-2 (Nuclear transport factor-2) | DRSC20552 | inactive |
| TfIIFbeta (Transcription factor TFIIFbeta) | DRSC16884 | inactive |
| TfIIFbeta (Transcription factor TFIIFbeta) | DRSC21447 | inactive |
| alrm (astrocytic leucine-rich repeat molecule) | DRSC14436 | inactive |
| Fdx1 (Ferredoxin 1) | DRSC11167 | inactive |
| CG31524 | DRSC22014 | inactive |
| Jwa | DRSC02048 | inactive |
| CG14143 | DRSC10146 | inactive |
| Rh2 (Rhodopsin 2) | DRSC16821 | inactive |
| LSm7 (Like Sm 7) | DRSC02251 | inactive |
| CG12061 | DRSC20715 | inactive |
| CG2681 | DRSC18464 | inactive |
| inaD (inactivation no afterpotential D) | DRSC04694 | inactive |
| Rheb (Ras homolog enriched in brain) | DRSC12148 | active |
| CG10973 | DRSC09813 | inactive |
| Lpt (Lost PHDs of trr) | DRSC04291 | inactive |
| Lpt (Lost PHDs of trr) | DRSC04515 | inactive |
| trem (trade embargo) | DRSC15575 | inactive |
| CG31862 | DRSC01245 | inactive |
| Mics1 (Mitochondrial morphology and cristae structure 1) | DRSC12537 | inactive |
| FRG1 (FSHD region gene 1) | DRSC10648 | inactive |
| fal (falten) | DRSC11087 | inactive |
| Lcp65APsi (pseudo) | DRSC08795 | inactive |
| Lcp65APsi (pseudo) | DRSC10342 | inactive |
| CG1523 | DRSC15033 | inactive |
| mei-W68 (meiotic W68) | DRSC07649 | inactive |
| CG9636 | DRSC16529 | inactive |
| CG3635 | DRSC03729 | inactive |
| CG30385 | DRSC06031 | inactive |
| papi | DRSC00693 | inactive |
| mldr (mulder) | DRSC18100 | inactive |
| CG10750 | DRSC02105 | inactive |
| CG4520 | DRSC15590 | inactive |
| CG17707 | DRSC20650 | inactive |
| pug (pugilist) | DRSC17036 | inactive |
| CG8188 | DRSC20090 | inactive |
| CG31021 | DRSC22319 | inactive |
| CG17304 (retired record) | DRSC15222 | inactive |
| CG31953 (retired record) + gkt | DRSC00709 | inactive |
| msk (moleskin) | DRSC11340 | inactive |
| lectin-29Ca | DRSC02635 | inactive |
| Pmm2 (Phosphomannomutase type 2) | DRSC09780 | inactive |
| CG32551 | DRSC19259 | inactive |
| y (yellow) | DRSC18853 | inactive |
| CG11693 | DRSC14353 | inactive |
| Nup107 (Nucleoporin 107kD) | DRSC01999 | inactive |
| CG2278 | DRSC18226 | inactive |
| CG6398 | DRSC19992 | inactive |
| RpL24 (Ribosomal protein L24) | DRSC03185 | inactive |
| CG31800 | DRSC22525 | inactive |
| CG11360 | DRSC17124 | inactive |
| CG11360 | DRSC17134 | inactive |
| Or98a (Odorant receptor 98a) | DRSC16774 | inactive |
| Sec71 (Secretory 71) | DRSC01893 | inactive |
| CG14323 | DRSC14802 | inactive |
| tefu (telomere fusion) | DRSC16060 | inactive |
| CG32147 | DRSC09346 | inactive |
| Mgat2 | DRSC16347 | inactive |
| aub (aubergine) | DRSC03486 | inactive |
| scw (screw) | DRSC01711 | inactive |
| scw (screw) | DRSC21252 | inactive |
| CG6403 | DRSC16033 | inactive |
| RasGAP1 (Ras GTPase activating protein 1) | DRSC11172 | inactive |
| asp (abnormal spindle) | DRSC16903 | inactive |
| CG16896 | DRSC04284 | inactive |
| CG5961 | DRSC15927 | inactive |
| CG9855 | DRSC12344 | inactive |
| fred (friend of echinoid) | DRSC00349 | inactive |
| fred (friend of echinoid) | DRSC00599 | inactive |
| fred (friend of echinoid) | DRSC00601 | inactive |
| fred (friend of echinoid) | DRSC00602 | inactive |
| fred (friend of echinoid) | DRSC21906 | inactive |
| CG7896 | DRSC16335 | inactive |
| CG14397 | DRSC02381 | inactive |
| GluRIIA (Glutamate receptor IIA) | DRSC03334 | inactive |

Already shown: an excerpt of the list.
| Gene | dsRNA | outcome |
| --- | --- | --- |
| side-II (sidestep II) | DRSC01429 | inactive |
| side-II (sidestep II) | DRSC01913 | inactive |
| side-II (sidestep II) | DRSC01932 | inactive |
| side-II (sidestep II) | DRSC02480 | inactive |
| side-II (sidestep II) | DRSC22508 | inactive |
| CG42375 + CG9288 | DRSC16468 | inactive |
| Pka-C3 (Protein kinase, cAMP-dependent, catalytic subunit 3) | DRSC09402 | inactive |
| Pka-C3 (Protein kinase, cAMP-dependent, catalytic subunit 3) | DRSC11254 | inactive |
| CG31019 | DRSC13994 | inactive |
| CG6231 | DRSC15997 | inactive |
| Pldn (Pallidin) | DRSC10137 | inactive |
| CG8630 | DRSC16441 | inactive |
| CG9588 | DRSC16504 | inactive |
| CG11584 | DRSC19408 | inactive |
| mRpL15 (mitochondrial ribosomal protein L15) | DRSC11771 | inactive |
| CG32213 + CG12519 + 825-Oak + 1 more | DRSC09615 | inactive |
| fd96Ca (forkhead domain 96Ca) | DRSC16946 | inactive |
| fdl (fused lobes) | DRSC07279 | inactive |
| CG1572 | DRSC19686 | inactive |
